# Measurements published in the supplement of paper PMC8728848.
# The other results are listed elsewhere or left out.
# B1: Erv46-EDTA (Saccharomyces cerevisiae), P39727 (protein)
# chain: MKFLVNVALVFMVVYISYIYAAAPEHHHHHHDYDIPTTENLYFQGAMDSVVTRPQLVVDRDRHAKLELNMDVTFPSMPCDLVNLDIMDDSGEMQLDILDAGFTMSRLNSEGRPVGDATELHVGGNGDGTAPVNNDPNYCGPCYGAKDQSQNENLAQEEKVCCQDCDAVRSAYLEAGWAFFDGKNIEQCEREGYVSKINEHLNEGCRIKGSAQINRIQGNLHFAPGKPYQNAYGHFHDTSLYDKTSNLNFNHIINHLSFGKPIQSHSKLLGNDKRHGGAVVATSPLDGRQVFPDRNTHFHQFSYFAKIVPTRYEYLDNVVIETAQFSATFHSRPLAGGRDKDHPNTLHVRGGIPGMFVFFEMSPLKVINKEQ
# Key:
# Assay in all cases: glycan array binding signal (z-score within array); higher = stronger binding
# Details in all cases: glycan notation: IUPAC condensed, linker removed
# [1] = target: Neu5Ac(a2-3)Gal6S(b1-4)[Fuc(a1-3)]GlcNAc
# Procedure, shortened: (§1)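 The binding signal is a Z-score computed within each array and averaged over linkers. Arrays of the same protein sequence at different concentrations or buffers were also averaged together. Data originate from 3228 arrays in the Consortium for Functional Glycomics database, kept only where the protein sequence was available.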
# Neu5Ac(a2-3)GalNAc = target: Neu5Ac(a2-3)GalNAc
# Procedure, shortened: as §1
# [2] = target: Neu5Ac(a2-3)GalNAc(b1-4)GlcNAc
# Procedure, shortened: as §1
# [3] = target: Neu5Ac(a2-3)[GalNAc(b1-4)]Gal(b1-4)Glc
# Procedure, shortened: as §1
# [4] = target: Neu5Ac(a2-3)[GalNAc(b1-4)]Gal(b1-4)GlcNAc
# Procedure, shortened: as §1
# [5] = target: Neu5Ac(a2-3)[GalNAc(b1-4)]Gal(b1-4)GlcNAc(b1-3)GalNAc
# Procedure, shortened: as §1
# [6] = target: Neu5Ac(a2-3)[Neu5Ac(a2-6)]GalNAc
# Procedure, shortened: as §1
# Neu5Ac(a2-6)Gal = target: Neu5Ac(a2-6)Gal
# Procedure, shortened: as §1
# [7] = target: Neu5Ac(a2-6)Gal(b1-3)GlcNAc(b1-3)[Gal(b1-4)GlcNAc(b1-6)]Gal(b1-4)Glc
# Procedure, shortened: as §1
# Neu5Ac(a2-6)Gal(b1-4)Glc = target: Neu5Ac(a2-6)Gal(b1-4)Glc
# Procedure, shortened: as §1
# [8] = target: Neu5Ac(a2-6)Gal(b1-4)GlcNAc
# Procedure, shortened: as §1
# [9] = target: Neu5Ac(a2-6)Gal(b1-4)GlcNAc(b1-2)Man
# Procedure, shortened: as §1
# [10] = target: Neu5Ac(a2-6)Gal(b1-4)GlcNAc(b1-2)Man(a1-3)Man(b1-4)GlcNAc(b1-4)GlcNAc
# Procedure, shortened: as §1
# [11] = target: Neu5Ac(a2-6)Gal(b1-4)GlcNAc(b1-2)Man(a1-3)[Gal(b1-4)GlcNAc(b1-2)Man(a1-6)]Man(b1-4)GlcNAc(b1-4)GlcNAc
# Procedure, shortened: as §1
# [12] = target: Neu5Ac(a2-6)Gal(b1-4)GlcNAc(b1-2)Man(a1-3)[GlcNAc(b1-2)Man(a1-6)]Man(b1-4)GlcNAc(b1-4)GlcNAc
# Procedure, shortened: as §1
# [13] = target: Neu5Ac(a2-6)Gal(b1-4)GlcNAc(b1-2)Man(a1-3)[GlcNAc(b1-4)][Neu5Ac(a2-6)Gal(b1-4)GlcNAc(b1-2)Man(a1-6)]Man(b1-4)GlcNAc(b1-4)GlcNAc
# Procedure, shortened: as §1
# [14] = target: Neu5Ac(a2-6)Gal(b1-4)GlcNAc(b1-2)Man(a1-3)[Man(a1-6)]Man(b1-4)GlcNAc(b1-4)GlcNAc
# Procedure, shortened: as §1
# [15] = target: Neu5Ac(a2-6)Gal(b1-4)GlcNAc(b1-2)Man(a1-3)[Neu5Ac(a2-3)Gal(b1-4)GlcNAc(b1-2)Man(a1-6)]Man(b1-4)GlcNAc(b1-4)GlcNAc
# Procedure, shortened: as §1
# [16] = target: Neu5Ac(a2-6)Gal(b1-4)GlcNAc(b1-2)Man(a1-3)[Neu5Ac(a2-6)Gal(b1-4)GlcNAc(b1-2)Man(a1-6)]Man(b1-4)GlcNAc(b1-4)GlcNAc
# Procedure, shortened: as §1
# [17] = target: Neu5Ac(a2-6)Gal(b1-4)GlcNAc(b1-2)Man(a1-3)[Neu5Ac(a2-6)Gal(b1-4)GlcNAc(b1-2)Man(a1-6)]Man(b1-4)GlcNAc(b1-4)[Fuc(a1-6)]GlcNAc
# Procedure, shortened: as §1
# [18] = target: Neu5Ac(a2-6)Gal(b1-4)GlcNAc(b1-2)Man(a1-6)Man(b1-4)GlcNAc(b1-4)GlcNAc
# Procedure, shortened: as §1
# [19] = target: Neu5Ac(a2-6)Gal(b1-4)GlcNAc(b1-2)Man(a1-6)[Gal(b1-4)GlcNAc(b1-2)Man(a1-3)]Man(b1-4)GlcNAc(b1-4)GlcNAc
# Procedure, shortened: as §1
# [20] = target: Neu5Ac(a2-6)Gal(b1-4)GlcNAc(b1-2)Man(a1-6)[GlcNAc(b1-2)Man(a1-3)]Man(b1-4)GlcNAc(b1-4)GlcNAc
# Procedure, shortened: as §1
# [21] = target: Neu5Ac(a2-6)Gal(b1-4)GlcNAc(b1-2)Man(a1-6)[Man(a1-3)]Man(b1-4)GlcNAc(b1-4)GlcNAc
# Procedure, shortened: as §1
# [22] = target: Neu5Ac(a2-6)Gal(b1-4)GlcNAc(b1-2)[Neu5Ac(a2-6)Gal(b1-4)GlcNAc(b1-4)]Man(a1-3)[GlcNAc(b1-4)][Neu5Ac(a2-6)Gal(b1-4)GlcNAc(b1-2)[Neu5Ac(a2-6)Gal(b1-4)GlcNAc(b1-6)]Man(a1-6)]Man(b1-4)GlcNAc(b1-4)GlcNAc
# Procedure, shortened: as §1
# [23] = target: Neu5Ac(a2-6)Gal(b1-4)GlcNAc(b1-2)[Neu5Ac(a2-6)Gal(b1-4)GlcNAc(b1-4)]Man(a1-3)[GlcNAc(b1-4)][Neu5Ac(a2-6)Gal(b1-4)GlcNAc(b1-4)Man(a1-6)]Man(b1-4)GlcNAc(b1-4)GlcNAc
# Procedure, shortened: as §1
# [24] = target: Neu5Ac(a2-6)Gal(b1-4)GlcNAc(b1-2)[Neu5Ac(a2-6)Gal(b1-4)GlcNAc(b1-6)]Man(a1-6)[Neu5Ac(a2-6)Gal(b1-4)GlcNAc(b1-2)Man(a1-3)][GlcNAc(b1-4)]Man(b1-4)GlcNAc(b1-4)GlcNAc
# Procedure, shortened: as §1
# [25] = target: Neu5Ac(a2-6)Gal(b1-4)GlcNAc(b1-3)Gal(b1-3)GlcNAc
# Procedure, shortened: as §1
# [26] = target: Neu5Ac(a2-6)Gal(b1-4)GlcNAc(b1-3)Gal(b1-4)GlcNAc
# Procedure, shortened: as §1
# [27] = target: Neu5Ac(a2-6)Gal(b1-4)GlcNAc(b1-3)Gal(b1-4)GlcNAc(b1-2)Man(a1-3)[Neu5Ac(a2-6)Gal(b1-4)GlcNAc(b1-3)Gal(b1-4)GlcNAc(b1-2)Man(a1-6)]GalNAc
# Procedure, shortened: as §1
# [28] = target: Neu5Ac(a2-6)Gal(b1-4)GlcNAc(b1-3)Gal(b1-4)GlcNAc(b1-3)Gal(b1-4)GlcNAc
# Procedure, shortened: as §1
# [29] = target: Neu5Ac(a2-6)Gal(b1-4)GlcNAc(b1-3)Gal(b1-4)GlcNAc(b1-3)Gal(b1-4)GlcNAc(b1-2)Man(a1-3)[Neu5Ac(a2-6)Gal(b1-4)GlcNAc(b1-3)Gal(b1-4)GlcNAc(b1-3)Gal(b1-4)GlcNAc(b1-2)Man(a1-6)]GalNAc
# Procedure, shortened: as §1
# [30] = target: Neu5Ac(a2-6)Gal(b1-4)GlcNAc(b1-3)Gal(b1-4)GlcNAc(b1-3)GalNAc
# Procedure, shortened: as §1
# [31] = target: Neu5Ac(a2-6)Gal(b1-4)GlcNAc(b1-3)Gal(b1-4)GlcNAc(b1-3)[Neu5Ac(a2-6)Gal(b1-4)GlcNAc(b1-3)Gal(b1-4)GlcNAc(b1-6)]GalNAc
# Procedure, shortened: as §1
# [32] = target: Neu5Ac(a2-6)Gal(b1-4)GlcNAc(b1-3)Gal(b1-4)GlcNAc(b1-6)[Gal(b1-3)]GalNAc
# Procedure, shortened: as §1
# [33] = target: Neu5Ac(a2-6)Gal(b1-4)GlcNAc(b1-3)Gal(b1-4)[Fuc(a1-3)]GlcNAc(b1-3)Gal(b1-4)[Fuc(a1-3)]GlcNAc
# Procedure, shortened: as §1
# [34] = target: Neu5Ac(a2-6)Gal(b1-4)GlcNAc(b1-3)GalNAc
# Procedure, shortened: as §1
binder,measurement,setting,value
B1,glycan array binding signal (z-score),[1],-0.046
same,glycan array binding signal (z-score),Neu5Ac(a2-3)GalNAc,-1.05
same,glycan array binding signal (z-score),[2],-0.028
same,glycan array binding signal (z-score),[3],-0.244
same,glycan array binding signal (z-score),[4],0.122
same,glycan array binding signal (z-score),[5],-0.691
same,glycan array binding signal (z-score),[6],-0.883
same,glycan array binding signal (z-score),Neu5Ac(a2-6)Gal,-0.121
same,glycan array binding signal (z-score),[7],-0.366
same,glycan array binding signal (z-score),Neu5Ac(a2-6)Gal(b1-4)Glc,-0.082
same,glycan array binding signal (z-score),[8],-0.528
same,glycan array binding signal (z-score),[9],-0.519
same,glycan array binding signal (z-score),[10],-0.652
same,glycan array binding signal (z-score),[11],-0.581
same,glycan array binding signal (z-score),[12],-0.441
same,glycan array binding signal (z-score),[13],-0.444
same,glycan array binding signal (z-score),[14],0.34
same,glycan array binding signal (z-score),[15],-0.318
same,glycan array binding signal (z-score),[16],-0.293
same,glycan array binding signal (z-score),[17],1.28
same,glycan array binding signal (z-score),[18],-0.429
same,glycan array binding signal (z-score),[19],-0.053
same,glycan array binding signal (z-score),[20],-0.805
same,glycan array binding signal (z-score),[21],-0.307
same,glycan array binding signal (z-score),[22],-0.269
same,glycan array binding signal (z-score),[23],-0.026
same,glycan array binding signal (z-score),[24],-0.824
same,glycan array binding signal (z-score),[25],-0.86
same,glycan array binding signal (z-score),[26],0.07
same,glycan array binding signal (z-score),[27],0.338
same,glycan array binding signal (z-score),[28],-0.315
same,glycan array binding signal (z-score),[29],3.54
same,glycan array binding signal (z-score),[30],-0.032
same,glycan array binding signal (z-score),[31],0.134
same,glycan array binding signal (z-score),[32],-0.333
same,glycan array binding signal (z-score),[33],0.355
same,glycan array binding signal (z-score),[34],-0.433

# Given tab-delimited: entries from further up.
binder	measurement	setting	value
B1	glycan array binding signal (z-score)	[7]	-0.366
same	glycan array binding signal (z-score)	Neu5Ac(a2-6)Gal(b1-4)Glc	-0.082
